At least one compound was matched to its structure with a doubt left. Peptide text beside a SMILES is read from it.
Test system: western corn rootworm (WCR) larvae
Test: Oral toxicity screening of CPPs in artificial diet
Format: in vivo
Details: first instar WCR larvae
Protocol: Briefly, CPPs were incorporated into standard WCR artificial diet in 96-well microtiter plate format. A 25 μL aliquot of dosing solution was combined with 75 μL molten low-melt WCR diet and shaken on an orbital shaker to mix. Once diet solidified, preconditioned first instar WCR (freshly-hatched insects placed on neutral diet for 24 hours prior to transfer to test diet) were added to the diet plates at a rate of 1 insect·well^−1. Plates were placed inside an incubator (Percival Scientific, Inc., Perry, IA) set to 27° C., 65% RH, and a 24-hour dark cycle. The assay was scored for mortality and stunting affects after 7 and 12 days, without diet refresh, on a 0-3 scale, where 3=mortality, 2=severe stunting, 1=stunting, 0=no affect when compared with untreated larvae. The assay was repeated three times and end-results were tabulated using all three replicates and converted to percentages (Table 5).

Measured: Mortality (%)

CSCC[C@H](NC(=O)[C@@H](NC(=O)[C@H](CO)NC(=O)CNC(=O)[C@H](C)NC(=O)[C@H](C)NC(=O)CNC(=O)[C@H](CC(C)C)NC(=O)[C@H](Cc1ccccc1)NC(=O)CNC(=O)[C@H](CC(C)C)NC(=O)[C@H](Cc1ccccc1)NC(=O)[C@H](CC(C)C)NC(=O)[C@H](C)NC(=O)CN)[C@@H](C)O)C(=O)NCC(=O)N[C@@H](C)C(=O)N[C@@H](Cc1c[nH]c2ccccc12)C(=O)N[C@@H](CO)C(=O)N[C@@H](CCC(N)=O)C(=O)N1CCC[C@H]1C(=O)N[C@@H](CCCCN)C(=O)N[C@@H](CO)C(=O)N[C@@H](CCCCN)C(=O)N[C@@H](CCCNC(=N)N)C(=O)N[C@@H](CCCCN)C(=O)N[C@H](C(=O)O)C(C)C [MPG]
0%: 0.195 ppm in artificial diet | 0.391 ppm in artificial diet | 0.781 ppm in artificial diet | 1.56 ppm in artificial diet | 3.13 ppm in artificial diet | 6.25 ppm in artificial diet | 12.5 ppm in artificial diet | 25.0 ppm in artificial diet | 50.0 ppm in artificial diet | 100 ppm in artificial diet | 200 ppm in artificial diet

N=C(N)NCCC[C@H](NC(=O)[C@H](Cc1c[nH]c2ccccc12)NC(=O)[C@H](CCCNC(=N)N)NC(=O)[C@@H](N)CS)C(=O)N[C@@H](Cc1c[nH]c2ccccc12)C(=O)N[C@@H](CCCCN)C(=O)N[C@@H](CS)C(=O)N[C@@H](CS)C(=O)N[C@@H](CCCCN)C(=O)N[C@@H](CCCCN)C(=O)O [CyLoP-1, CRWRWKCCKK] (H-CRWRWKCCKK-OH; N-terminus and C-terminus assumed)
0%: 0.195 ppm in artificial diet | 0.391 ppm in artificial diet | 0.781 ppm in artificial diet | 1.56 ppm in artificial diet | 3.13 ppm in artificial diet | 6.25 ppm in artificial diet | 12.5 ppm in artificial diet | 25.0 ppm in artificial diet | 50.0 ppm in artificial diet | 100 ppm in artificial diet | 200 ppm in artificial diet

Source: patent US20240041050A1, “CELL PENETRATING PEPTIDE MEDIATED RNA TRANSDUCTION WITHIN INSECT CELLS” (PIONEER HI-BRED INTERNATIONAL, INC., priority 2020, published 2024)
